Experimental data taken from article doi:10.1101/2020.05.08.085126.
Results are given in words; binding and its absence hold for the method and conditions named.

Experiments:
[1] = target: STF^85-190 R151A mutant (Medicago truncatula) (UniProt G0ZGT3); experiment: native gel or EMSA
[2] = target: STF^85-190 F142Y/Y143N mutant (Medicago truncatula) (UniProt G0ZGT3); experiment: native gel or EMSA

Row | binding [1] | binding [2] | Binder
1 | no binding | – | STF^85-190 R151A mutant (domain or fragment, UniProt G0ZGT3 85-190) NNPSAAVVVSSRWNPTPEQLRALEELYRRGTRTPSAEQIQQITAQLRKFGKIEGKNVFYWFQNHKAAERQKRRRQMESAAAEFDSAIEKKDLGASRTVFEVEHTKN
2 | – | no binding | STF^85-190 F142Y/Y143N mutant (domain or fragment, UniProt G0ZGT3 85-190) NNPSAAVVVSSRWNPTPEQLRALEELYRRGTRTPSAEQIQQITAQLRKFGKIEGKNVYNWFQNHKARERQKRRRQMESAAAEFDSAIEKKDLGASRTVFEVEHTKN
